Reference: patent publication US20210155712A1
Results are given in words; binding and its absence hold for the method and conditions named. Some results given as binding are weak or reduced against the parent protein; the word gives no strength. Values belong to the binder of their own block, whether it stands above or below them.

Protein sequences, listed by entry. Tags and fused reporters are not part of them. Lines headed by an entry give the natural chain unless they say otherwise; changes in a name come on top. Chains listed by the source or under a name are the forms on record and can include a tag or linker.
cynomolgus macaque HER3 (G7PIG5, form named): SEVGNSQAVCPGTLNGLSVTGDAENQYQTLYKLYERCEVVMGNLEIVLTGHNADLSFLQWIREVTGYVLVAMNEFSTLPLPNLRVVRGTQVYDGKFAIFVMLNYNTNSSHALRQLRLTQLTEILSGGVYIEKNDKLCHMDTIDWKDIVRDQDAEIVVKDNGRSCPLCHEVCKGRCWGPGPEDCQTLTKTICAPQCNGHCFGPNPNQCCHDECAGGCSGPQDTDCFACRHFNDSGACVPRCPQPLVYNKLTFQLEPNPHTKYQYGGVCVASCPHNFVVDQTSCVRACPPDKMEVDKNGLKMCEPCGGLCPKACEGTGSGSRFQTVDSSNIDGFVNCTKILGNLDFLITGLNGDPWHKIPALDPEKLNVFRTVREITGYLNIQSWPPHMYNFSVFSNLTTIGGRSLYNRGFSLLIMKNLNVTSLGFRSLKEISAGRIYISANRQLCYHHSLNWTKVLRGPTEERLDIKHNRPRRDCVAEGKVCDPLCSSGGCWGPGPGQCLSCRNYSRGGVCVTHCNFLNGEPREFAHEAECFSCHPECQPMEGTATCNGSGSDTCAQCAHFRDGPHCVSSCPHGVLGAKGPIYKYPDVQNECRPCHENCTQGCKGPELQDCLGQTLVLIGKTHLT

Tests used:
[1] = biological target: cynomolgus macaque HER3 (cynomolgus macaque) (UniProt G7PIG5); test: ELISA, plate coated with 0.1 ug/ml target polypeptide, antibody titrated, absorbance 450 nm
[2] = biological target: cynomolgus macaque HER3 (cynomolgus macaque) (UniProt G7PIG5); test: ELISA, plate-coated target

binding [1]: binds | binding [2]: binds
B1: anti-HER3 clone 4-35-B4 IgG1 (antibody, V domains shown)
VH: EVQLQQSGAELVKPGASVKLSCTASGFNIKDTYIHWVKQRPDQGLEWIGKIIDPANGNTNYDPKFQGKATITADTSSNTAYLQLSSLSSEDTAVYFCARGLHWGQGTTLTVSS
VL: DIVLTQSPASLAVSLGQRATISCRASKSVSTSGYSYMHWYQQKPGQPPKLLIYLASNLESGVPARFSGSGSGTDFTLNIHPVEEEDAATYYCQHSRELPYTFGGGTKLEIKR

binding [1]: binds | binding [2]: binds
B2: anti-HER3 clone 4-35-B2 IgG1 (antibody, V domains shown)
VH: EIQLQQSGPELVKPGASVKVSCKASGYSFTDYNMYWVKQSHGKSLEWIGHINPYNGGTTYNQKFKGRATLTVDKSSSTAFMHLNSLTSEDSAVYFCVSLRWGAMDYWGQGTSVTVSS
VL: QIVLTQSPALMSASPGEKVTMTCSASSSVSYMYWYQQKPRSSPKPWIYLTSNLASGVPARFSGSGSGTSYSLTISSMEAEDAATYYCQQWNSNPYTFGGGTKLEIKR
